# Source: PubChem BioAssay AID493014 (National Center for Advancing Translational Sciences (NCATS), 2011)
# Where “and” joins values, the source holds several entries; their conditions need not be identical. Identical values can stand only once. Some of the results follow. Further columns of the screen follow, without active or inactive calls. The list favours compounds with an active or inconclusive main result. The note in brackets gives the kind of curve behind each potency; many fits are weak.
# Experiment: qHTS Assay to Find Inhibitors of Chronic Active B-Cell Receptor Signaling
# Conditions: ABC-DLBCL IkBa-CBG/CBR reporter, luminescence ratio (green luciferase fused to IkBa over red control in TMD8 lymphoma cells), 4 h
# Summary of the method: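 Doxycycline induced both beetle luciferases in TMD8 lymphoma cells; IKK-driven degradation limits the IkappaBalpha-fused green signal, while red luminescence normalises for cell number and nonspecific effects. Compounds tested up to 46 uM, 4 hrs.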
# [1] = measured here: CBR red luminescence, cell number
# [2] = measured here: IkBa-CBG green luminescence
SMILES,AC50 [1],AC50 [2]
CC(=O)c1c(C)[nH]c(C(=O)OCC(=O)N2CC(=O)Nc3ccccc32)c1C,"29.1 µM [rising, single point]",–
COc1cc(NC(=O)c2cc3sccc3n2C)cc(OC)c1,"0.13 µM [falling, full curve]",–
Cn1cccc1C(=O)OCC(=O)NCc1ccc2c(c1)OCO2,"6.51 µM [rising, single point]",–
CC(C)[C@H](NC(=O)c1ccccc1)C(=O)OCC(=O)c1ccc2c(c1)NC(=O)CO2,"4.11 µM [rising, full curve, poor fit]",–
O=C(O)c1ccc(CN2C(=O)c3cccc4c([N+](=O)[O-])ccc(c34)C2=O)cc1,–,"35.5 µM [falling, single point]"
CC1=Nc2cc(C(=O)NC3CCCCC3)ccc2Sc2ccc(Cl)cc21,"2 µM [rising, full curve, poor fit]","1.41 µM [falling, full curve]"
Cc1cc(C)c(NC(=O)c2ccccc2N(C)S(C)(=O)=O)c(C)c1,"2.06 µM [falling, single point]",–
Nc1c(C(=O)Nc2ccc(F)cc2)nnn1-c1cccc(C(F)(F)F)c1,"2.82 µM [falling, single point]",–
CCCCCCCn1c2c(c(=N)c3c1CCC3)CCCC2,"12.6 µM [falling, partial curve, poor fit]",–
COc1ccccc1C(=O)n1nc(-c2cccnc2)nc1NCc1ccccc1,"17.8 µM [falling, partial curve, poor fit]",–
C[C@@H](C(=O)NC1CCCCC1)N1C(=O)N2CCc3c([nH]c4ccccc34)[C@@]2(C)C1=O,"17.8 µM [falling, partial curve, poor fit]",–
COc1ccc(-c2csc3ncn(CC(=O)N4CCOCC4)c(=O)c23)cc1,"3.16 µM [rising, single point]",–
CC(=O)c1c(C)[nH]c(C(=O)OCC(=O)Nc2ccccc2Cl)c1C,"12.6 µM [falling, single point]",–
O=C(O)c1ccc(/C=C(\c2nc3ccccc3[nH]2)c2nc3ccccc3s2)cc1,"35.5 µM [falling, single point]",–
O/N=C1/CC/C(=N\O)c2nn(-c3ccccc3)nc21,–,"3.26 µM [falling, partial curve, poor fit]"
CN(C)S(=O)(=O)c1ccc(Cl)c(C(=O)NCc2ccco2)c1,"4.11 µM [falling, single point]",–
C/C(=N\NC(=O)c1c([N+](=O)[O-])c(C)nn1C)c1ccc(NC(=O)C2CCCC2)cc1,"11.2 µM [rising, partial curve]","7.94 µM [falling, partial curve]"
COCCNc1nc(C)cc(-c2cc(-c3ccc(Cl)cc3)on2)n1,"2.82 µM [falling, partial curve, poor fit]",–
CCNCCC(CCC(C)C)c1ccc2c(c1)OCO2 (centres undefined),"25.1 µM [falling, single point]",–
CCc1ccc(NC(=O)CSc2nc(=O)n(CCCN3CCOCC3)c3c2CCCC3)cc1,"6.51 µM [rising, single point]","7.31 µM [falling, partial curve, poor fit]"

SMILES,AC50 [1],AC50 [2]
C/C(NC(=O)c1cccs1)=C1\C(=O)C[C@@H]2[C@H]1C2(C)C,"15.8 µM [rising, partial curve]","17.8 µM [falling, single point]"
COc1ccc(CC(=O)N2CCN(c3ccccc3OC)CC2)cc1OC,"35.5 µM [rising, single point]",–
COc1ccc(C(=O)N2CCN(S(=O)(=O)c3ccc4c(c3)OCCO4)CC2)cc1OC,"2.06 µM [rising, partial curve, poor fit]",–
CC(C)(CO)N1CCN(C(=S)Nc2ccccc2)CC1,"35.5 µM [rising, single point]",–
CC(C)CCOCc1nc2sc3c(c2c(=O)[nH]1)CCC(C)C3 (centres undefined),"10.3 µM [rising, partial curve]",–
C[C@@H]1CC[C@]2(O[C@@H](CCO)C[C@@H](O)[C@@H]2O)O1,"12.6 µM [rising, single point]",–
O=C(NO)c1ccc(OC(F)F)cc1,"6.31 µM [falling, single point]",–
Cc1cnc(NC(=O)CSc2nnc(-c3ccccc3)o2)s1,"6.51 µM [falling, partial curve]",–
COc1cc(/C=C2\SC(=Nc3ccccc3)N(CCc3c[nH]c4ccccc34)C2=O)ccc1OC(C)C(=O)O (centres undefined),"0.517 µM [falling, partial curve, poor fit]",–
COCCN(CC(=O)Nc1ccccc1C(F)(F)F)C(=O)/C=C/c1ccc2ccccc2n1,"0.326 µM [falling, full curve, poor fit]",–
Cc1ccccc1-n1nc(-c2ccc(N)cc2)cc1N,"3.26 µM [rising, partial curve, poor fit]",–
O=S1(=O)N=C(N(CCO)/N=C/c2ccccc2)c2ccccc21,"1 µM [falling, full curve, poor fit]",–
Cc1ccc(-c2ccc(/C=C(\C#N)C(N)=S)n2C)cc1,"14.1 µM [falling, single point]",–
O=C(Nc1cccc(NC(=S)NC(=O)c2cccs2)c1)c1ccccc1,"0.58 µM [falling, full curve, poor fit]",–
O=C(Cn1sc2ccccc2c1=O)NC12CC3CC(CC(C3)C1)C2,"14.6 µM [rising, single point]",–
CC(C)(C)Nc1ncnc2c1cnn2-c1ccccc1,"29.1 µM [falling, single point]",–
COc1ccc(OCCn2cnc3ccccc32)cc1,"7.94 µM [rising, partial curve]",–
COc1cccc(C(=O)Nc2ccccc2N2CCCC2)c1,"29.1 µM [rising, single point]",–
CC1CCC(C(C)C)C(OC(=O)Cn2c(-c3ccccc3)[n+](C)c3ccccc32)C1 (centres undefined),"11.6 µM [falling, partial curve] and 10.3 µM [falling, partial curve]","6.51 µM [rising, partial curve, poor fit] and 16.4 µM [rising, partial curve, poor fit]"
